Reference: PMC7736783 (Nucleic Acids Research, 2020)
Results are given in words; binding and its absence hold for the method and conditions named.

The chains behind the UniProt entries cited, without tags or fusion partners. Where a name states a change or a piece, a line headed by the entry shows the natural chain unless it says otherwise. A line that says so, or that is headed by a name, gives the form on record, which may keep a tag or linker. Residues count along the entry.
UniProt Q9UBB5: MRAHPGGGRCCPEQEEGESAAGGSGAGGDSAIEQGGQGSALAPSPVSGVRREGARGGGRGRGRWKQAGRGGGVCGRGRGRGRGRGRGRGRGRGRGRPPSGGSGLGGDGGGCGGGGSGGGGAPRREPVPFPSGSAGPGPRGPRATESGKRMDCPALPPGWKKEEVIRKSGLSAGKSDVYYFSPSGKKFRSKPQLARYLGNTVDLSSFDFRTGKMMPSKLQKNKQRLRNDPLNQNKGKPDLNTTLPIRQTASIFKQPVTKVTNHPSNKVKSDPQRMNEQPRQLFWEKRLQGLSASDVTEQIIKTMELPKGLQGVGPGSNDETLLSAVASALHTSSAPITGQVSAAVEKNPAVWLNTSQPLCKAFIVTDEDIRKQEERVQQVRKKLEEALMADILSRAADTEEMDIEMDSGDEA
Strep-MBD2 (residues 114–411): residues 114-411 of Q9UBB5
MTA1-Δ12 (MTA1 162–354 with part of ELM2 helix 2 deleted) (Q13330, form named): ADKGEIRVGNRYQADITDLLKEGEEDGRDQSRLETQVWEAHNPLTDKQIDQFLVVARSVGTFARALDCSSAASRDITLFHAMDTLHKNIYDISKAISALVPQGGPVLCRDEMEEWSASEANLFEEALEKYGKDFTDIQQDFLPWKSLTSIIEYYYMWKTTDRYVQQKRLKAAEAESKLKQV

Assays:
[1] = target: Strep-MBD2 (residues 114–411) (UniProt Q9UBB5); assay: pull-down; complex co-expressed with Strep-MBD2 and untagged MBD2, purified on FLAG resin, TEV-eluted, gel filtrated (Superose 6), then applied to Strep-Tactin XT Superflow resin, washed five times with buffer C (25 mM Tris-HCl pH 7.5, 75 mM potassium acetate, 0.5 mM TCEP), resin loaded on SDS-PAGE; both purified
[2] = target: MTA1-Δ12 (MTA1 162–354 with part of ELM2 helix 2 deleted) (UniProt Q13330); assay: condition: only the monomeric form of the MTA1-Δ12:HDAC1 complex (second Superose 6 peak); SEC; FLAG-purified, TEV-eluted co-expressed complex run on a Superose 6 column; fractions on SDS-PAGE; both purified

binding [1]: no binding
binding [2]: no binding
Substance: MBD2 (residues 145–411) (from UniProt Q9UBB5 145-411) (domain or fragment)
